Data: publication PMC12203913
These are yes or no findings as the source states them, for the method shown.

Protein sequences, listed by entry. Tags and fused reporters are not part of them. Lines headed by an entry give the natural chain unless they say otherwise; changes in a name come on top.
UniProt Q01831: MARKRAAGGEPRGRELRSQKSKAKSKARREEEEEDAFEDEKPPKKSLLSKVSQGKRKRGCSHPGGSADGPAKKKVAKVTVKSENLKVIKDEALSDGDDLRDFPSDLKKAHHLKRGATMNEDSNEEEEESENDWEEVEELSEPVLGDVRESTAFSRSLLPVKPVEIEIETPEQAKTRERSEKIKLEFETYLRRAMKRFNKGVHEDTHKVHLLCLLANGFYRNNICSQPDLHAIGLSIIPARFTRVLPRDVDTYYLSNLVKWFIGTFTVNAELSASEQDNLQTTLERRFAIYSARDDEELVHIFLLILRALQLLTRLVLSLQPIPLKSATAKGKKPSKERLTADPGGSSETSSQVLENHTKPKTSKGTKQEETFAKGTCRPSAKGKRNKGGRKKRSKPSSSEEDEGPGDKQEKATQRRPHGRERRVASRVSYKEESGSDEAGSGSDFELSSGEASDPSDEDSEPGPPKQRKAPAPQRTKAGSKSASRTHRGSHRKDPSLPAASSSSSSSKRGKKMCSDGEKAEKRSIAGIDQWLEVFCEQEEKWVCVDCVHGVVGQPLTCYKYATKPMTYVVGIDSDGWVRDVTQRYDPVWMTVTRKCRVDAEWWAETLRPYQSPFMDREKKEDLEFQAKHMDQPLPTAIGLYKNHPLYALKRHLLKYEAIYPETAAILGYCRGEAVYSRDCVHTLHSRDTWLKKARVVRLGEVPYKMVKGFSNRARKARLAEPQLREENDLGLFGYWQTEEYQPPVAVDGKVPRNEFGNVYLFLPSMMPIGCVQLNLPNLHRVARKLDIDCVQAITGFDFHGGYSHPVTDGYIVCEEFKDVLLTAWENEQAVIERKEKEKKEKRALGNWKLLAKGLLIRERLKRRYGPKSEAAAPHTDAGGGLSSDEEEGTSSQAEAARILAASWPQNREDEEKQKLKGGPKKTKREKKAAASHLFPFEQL
UniProt P54727: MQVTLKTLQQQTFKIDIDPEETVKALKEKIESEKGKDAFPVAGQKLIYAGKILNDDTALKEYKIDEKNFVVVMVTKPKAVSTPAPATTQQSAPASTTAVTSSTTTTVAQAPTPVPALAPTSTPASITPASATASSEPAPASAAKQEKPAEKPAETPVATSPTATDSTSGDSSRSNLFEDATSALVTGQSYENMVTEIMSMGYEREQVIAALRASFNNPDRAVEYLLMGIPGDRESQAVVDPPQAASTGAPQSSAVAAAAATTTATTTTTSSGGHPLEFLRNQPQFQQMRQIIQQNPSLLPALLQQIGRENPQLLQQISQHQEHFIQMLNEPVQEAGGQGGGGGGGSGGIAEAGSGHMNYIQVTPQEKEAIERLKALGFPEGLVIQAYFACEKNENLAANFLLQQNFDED
UniProt Q16531: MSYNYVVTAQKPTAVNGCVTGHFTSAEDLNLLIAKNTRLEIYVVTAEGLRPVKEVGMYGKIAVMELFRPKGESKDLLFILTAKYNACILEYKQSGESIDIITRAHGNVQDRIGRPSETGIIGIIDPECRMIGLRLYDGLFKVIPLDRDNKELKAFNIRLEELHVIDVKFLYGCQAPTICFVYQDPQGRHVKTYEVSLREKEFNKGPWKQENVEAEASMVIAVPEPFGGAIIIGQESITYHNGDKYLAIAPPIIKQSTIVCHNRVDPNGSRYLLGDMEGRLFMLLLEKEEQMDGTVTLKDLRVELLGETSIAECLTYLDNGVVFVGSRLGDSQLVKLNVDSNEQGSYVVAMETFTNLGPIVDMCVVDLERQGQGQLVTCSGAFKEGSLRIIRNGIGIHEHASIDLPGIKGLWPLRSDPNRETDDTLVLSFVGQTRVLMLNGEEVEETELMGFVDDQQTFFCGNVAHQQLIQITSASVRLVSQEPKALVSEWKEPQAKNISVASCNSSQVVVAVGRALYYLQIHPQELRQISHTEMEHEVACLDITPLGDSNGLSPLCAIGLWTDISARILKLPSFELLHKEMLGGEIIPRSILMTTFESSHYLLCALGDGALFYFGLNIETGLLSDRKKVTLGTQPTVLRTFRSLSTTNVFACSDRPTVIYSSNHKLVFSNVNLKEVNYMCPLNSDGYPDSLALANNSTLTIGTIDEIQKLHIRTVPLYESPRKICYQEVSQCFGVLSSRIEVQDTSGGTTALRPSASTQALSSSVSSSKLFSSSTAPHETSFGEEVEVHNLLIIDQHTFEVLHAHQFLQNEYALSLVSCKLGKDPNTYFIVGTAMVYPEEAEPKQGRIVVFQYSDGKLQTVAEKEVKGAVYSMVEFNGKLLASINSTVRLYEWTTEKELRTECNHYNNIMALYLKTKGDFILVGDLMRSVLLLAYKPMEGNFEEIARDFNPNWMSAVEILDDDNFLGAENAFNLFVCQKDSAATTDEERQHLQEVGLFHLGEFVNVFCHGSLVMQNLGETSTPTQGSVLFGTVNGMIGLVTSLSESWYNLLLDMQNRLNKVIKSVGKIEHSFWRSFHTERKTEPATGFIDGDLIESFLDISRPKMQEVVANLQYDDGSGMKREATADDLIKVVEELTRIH

Molecular target: XPC-RAD23B (human) (UniProt Q01831+P54727)
Assay: condition: only XPC-RAD23B pre-bound to λ-DNA and free XPC-RAD23B washed out; 0.2 nM UV-DDB; single-molecule DNA curtain; single-tethered λ-DNA curtains covered with XPC-RAD23B (8 nM incubated, ~70% coverage, unbound washed out, labelled with Alexa488-conjugated FLAG antibody); then 0.2 nM Qdot-labelled (anti-HA) UV-DDB injected; both purified

Substance: UV-DDB (heterodimer of DDB1 and DDB2) (from UniProt Q16531 1-1140; Q92466 1-427) (complex)
- binding: no binding
